Test results: publication PMC2952586
Results are given in words; binding and its absence hold for the method and conditions named. Binding seen in cells or lysates may run through a third protein. Some entries that bind do so weakly or less than the wild type.

Assays:
[1] = molecular target: T1, TIA-1::RFP (UniProt P31483); test: co-IP; as a1, but lysates treated with RNase A (50 µg/ml) for 30 min at 37°C before the immunoprecipitation
T1 sequence: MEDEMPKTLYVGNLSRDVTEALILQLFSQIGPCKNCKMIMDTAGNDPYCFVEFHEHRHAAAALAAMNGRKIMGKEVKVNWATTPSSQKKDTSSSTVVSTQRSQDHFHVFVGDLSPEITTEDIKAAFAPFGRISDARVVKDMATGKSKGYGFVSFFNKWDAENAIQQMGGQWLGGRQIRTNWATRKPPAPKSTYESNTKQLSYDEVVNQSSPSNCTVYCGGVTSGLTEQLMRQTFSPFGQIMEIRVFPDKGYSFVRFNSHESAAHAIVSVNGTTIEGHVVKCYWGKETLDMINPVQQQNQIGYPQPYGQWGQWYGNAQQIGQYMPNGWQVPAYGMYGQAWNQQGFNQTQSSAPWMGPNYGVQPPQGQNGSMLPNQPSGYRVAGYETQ

[2] = molecular target: T1, TIA-1::RFP; test: co-IP; lysates of HEK 293 cells transfected 48 hrs with TDP-43::EGFP and/or TIA-1::RFP, not treated with RNase; immunoprecipitated with antibody to TIA-1, blotted with antibody to TDP-43; co-IP buffer 20 mM Tris-HCl pH 7.4, 150 mM NaCl, 1 mM EDTA, 1% Triton X-100

K82/84A TDP-43::EGFP (from UniProt Q13148-1 1-414)
binding [1]: binds | binding [2]: binds

WT TDP-43::EGFP (from UniProt Q13148-1 1-414)
binding [1]: binds | binding [2]: binds
